Patent US10011814B2, “Salt formulations for the fermentation of marine microorganisms” (Triphase Research and Development I Corp., priority 2006, dated 2018)

System: Salinispora tropica NPS021184
Assay: Production of Salinosporamide A and analogs in shake flask or tube culture; titers by HPLC of EtOAc extract
Conditions: for Max Titers: Ex.1 Table 2; for Max Avg Titer / relative to Sal A (%): Ex.2 Table 3
Protocol: Seed cultures were prepared by inoculating frozen stock of Salinispora tropica NPS021184 into seed medium.
(§1) The first seed cultures (either 10 mL medium in a 50-mL tube or 100 mL medium in a 500-mL Erlenmeyer flask) were incubated for 3 to 4 days before inoculating into the second seed media with the same composition as the first seed cultures. The second seed cultures (100 mL medium in a 500-mL Erlenmeyer flask) were incubated for two days before inoculating into the production medium (100 mL medium in a 500-mL Erlenmeyer flask).
The chemically defined salt formulation included: […]
(§2) 3.5 mL of the fermentation culture was mixed with equal volume of EtOAc in an extraction tube to extract the various metabolites from the production culture. The mixture was shaken on a shaker for one hr. An aliquot of the extract (1 mL) was removed and dried under a stream of nitrogen. The dried extract was stored at −20° C. freezer before HPLC analysis. The dried extract was resuspended in 320 μL DMSO and injected into HPLC using the 00TF14 method for analysis.
The production of Salinosporamide A, NPI-0047 and NPI-2065 was monitored by Agilent HP1100 HPLC using an ACE C-18 reversed-phase column (4.6×150 mm), and solvent system consisting of water (0.01% TFA) as solvent A and acetonitrile (0.01% TFA) as solvent B. The elution was started at 100% solvent A for 1 min, 100% solvent A to 35% solvent A gradient in 7 min, held at 35% solvent A for 11 min, 35% solvent A to 100% solvent B in 8 min and held at 100% solvent B for 9 min at a flow rate of 1.5 mL/min with the detector wavelength set at 210 nm and column temperature 35° C.
The first seed cultures (either 10 mL medium in a 50-mL tube or 100 ml medium in a 500-ml Erlenmeyer flask) were incubated for 3 to 4 days before inoculating into the second seed media with the same composition as the first seed cultures. The second seed cultures (100 mL medium in a 500-mL Erlenmeyer flask) were incubated for two days before inoculating into the production medium (100 mL medium in a 500-mL Erlenmeyer flask).
as §1, with “in a 50-ml tube or” for “in a 50-mL tube or”, “inoculating into production medium” for “inoculating into the production medium”
as §2, with “shaken” for “shaken on a shaker”, “1” for “one”, “[…]” for “μL”, “TFS7” for “00TF14”
The production of Salinosporamide A, NPI-0047 and NPI-2065 was monitored by Agilent HP1100 HPLC using an ACE C-18 reversed-phase column (4.6×150 mm), and isocratic solvent system consisting of 67% water (0.01% TFA) and 33% acetonitrile (0.01% TFA). The flow rate was 1.5 mL/min for 15 min with the detector wavelength set at 210 nm and column temperature 35° C.
3.5 mL of the fermentation culture was mixed with equal volume of EtOAc in an extraction tube to extract the various metabolites from the production culture. The mixture was shaken on the shaker for 1 hr. An aliquot of the extract (1 mL) was removed and dried under a stream of nitrogen. The dried extract was stored at −20° C. freezer before HPLC analysis. The dried extract was resuspended in 320 μL DMSO and injected into HPLC using the TFS7 method for analysis. […]

## CC[C@H]1C(=O)N[C@@]2([C@@H](O)[C@@H]3C=CCCC3)C(=O)O[C@@]12C [NPI-0047, Salinosporamide B]
BAS.PD + 0.1% Valeric acid
  Titers (maximum concentrations): 0.45 mg/L
Ex.1 Table 1, shake flask, 104 μg/L CoCl2·6H2O in production medium
  Maximum Titer: 3.6 mg/L
Ex.1 Table 1, shake flask, 1.04 mg/L CoCl2·6H2O in production medium
  Maximum Titer: 3.5 mg/L
Ex.1 Table 1, shake flask, 10.4 mg/L CoCl2·6H2O in production medium
  Maximum Titer: 3.1 mg/L
Ex.1 Table 1, shake flask, no CoCl2·6H2O addition to production medium
  Maximum Titer: 10.6 mg/L
2.6 μg/L CoCl2·6H2O in production medium
  Max Titers: 8.3 mg/L
5.2 μg/L CoCl2·6H2O in production medium
  Max Titers: 6.0 mg/L
6.5 μg/L CoCl2·6H2O in production medium
  Max Titers: 6.3 mg/L
13 μg/L CoCl2·6H2O in production medium
  Max Titers: 4.9 mg/L
26 μg/L CoCl2·6H2O in production medium
  Max Titers: 3.7 mg/L
52 μg/L CoCl2·6H2O in production medium
  Max Titers: 3.1 mg/L
104 μg/L CoCl2·6H2O in production medium
  Max Titers: 3.5 mg/L
208 μg/L CoCl2·6H2O in production medium
  Max Titers: 3.1 mg/L
416 μg/L CoCl2·6H2O in production medium
  Max Titers: 2.7 mg/L
Shake flask, control, no CoCl2·6H2O in production medium
  Max Titers: 10.2 mg/L
CoCl2·6H2O in seed medium 0 μg/L, 52 μg/L in production medium
  Max Avg Titer: 3.3 mg/L
CoCl2·6H2O in seed medium 2.6 μg/L, 52 μg/L in production medium
  Max Avg Titer: 3.5 mg/L
CoCl2·6H2O in seed medium 5.2 μg/L, 52 μg/L in production medium
  Max Avg Titer: 3.4 mg/L
CoCl2·6H2O in seed medium 13 μg/L, 52 μg/L in production medium
  Max Avg Titer: 2.8 mg/L
CoCl2·6H2O in seed medium 26 μg/L, 52 μg/L in production medium
  Max Avg Titer: 3.2 mg/L
CoCl2·6H2O in seed medium 52 μg/L, 52 μg/L in production medium
  Max Avg Titer: 2.7 mg/L
CoCl2·6H2O in seed medium 104 μg/L, 52 μg/L in production medium
  Max Avg Titer: 3.0 mg/L
CoCl2·6H2O in seed medium 208 μg/L, 52 μg/L in production medium
  Max Avg Titer: 2.9 mg/L
CoCl2·6H2O in seed medium 416 μg/L, 52 μg/L in production medium
  Max Avg Titer: 3.0 mg/L
Seed CoCl2·6H2O 0 μg/L
  relative to Sal A (%): 1.1%
Seed CoCl2·6H2O 2.6 μg/L
  relative to Sal A (%): 1.2%
Seed CoCl2·6H2O 5.2 μg/L
  relative to Sal A (%): 1.1%
Seed CoCl2·6H2O 13 μg/L
  relative to Sal A (%): 0.9%
Seed CoCl2·6H2O 26 μg/L
  relative to Sal A (%): 0.9%
Seed CoCl2·6H2O 52 μg/L
  relative to Sal A (%): 0.8%
Seed CoCl2·6H2O 104 μg/L
  relative to Sal A (%): 0.9%
Seed CoCl2·6H2O 208 μg/L
  relative to Sal A (%): 0.8%
Seed CoCl2·6H2O 416 μg/L
  relative to Sal A (%): 0.9%
Ex.4 Table 9, Chemically Defined Salt Formulation + Na2SO4 + 52 μg/L CoCl2·6H2O (Medium Lo.Maz, low chloride)
  Titer: 7.3 mg/L
Ex.4 Table 9, Chemically Defined Salt Formulation + NaCl + 52 μg/L CoCl2·6H2O, average of two experiments
  Titer: 3.2* mg/L
Ex.4 Table 9, production medium with INSTANT OCEAN
  Titer: 12.7 mg/L
Ex.4 Table 9, production medium: Chemically Defined Salt Formulation + NaCl
  Titer: 10.6 mg/L
Ex.5 Table 12, seed Lo.BNA, production SHY.KcMC, 16 mM sodium by ICP-MS, culture age 3 days
  Titer: 0.7 mg/L
Ex.5 Table 12, seed Lo.BNA, production SHY.KcMC, 16 mM sodium by ICP-MS, culture age 4 days
  Titer: 1.1 mg/L
Ex.5 Table 12, seed Lo.BNA, production SHY.KcMC, 16 mM sodium by ICP-MS, culture age 5 days
  Titer: 0.3 mg/L
Ex.5 Table 12, seed Lo.BNA, production SHY.KcMC, 16 mM sodium by ICP-MS, culture age 6 days
  Titer: 0.5 mg/L
Ex.6 Table 13, washed cells, seed A1.Kc4C, production SHY.KcMC, 11 mM sodium by ICP-MS, culture age 3 days
  Titers: 0 mg/L
Ex.6 Table 13, washed cells, seed A1.Kc4C, production SHY.KcMC, 11 mM sodium by ICP-MS, culture age 4 days
  Titers: 0 mg/L
Ex.6 Table 13, washed cells, seed A1.Kc4C, production SHY.KcMC, 11 mM sodium by ICP-MS, culture age 5 days
  Titers: 0.5 mg/L
Ex.6 Table 13, washed cells, seed A1.Kc4C, production SHY.KcMC, 11 mM sodium by ICP-MS, culture age 6 days
  Titers: 0.6 mg/L
Ex.8 Table 16, seed SHY.KCD, production SHY.KcMC, 11 mM sodium by ICP-MS, culture age 3 days
  Titers: 0.2 mg/L
Ex.8 Table 16, seed SHY.KCD, production SHY.KcMC, 11 mM sodium by ICP-MS, culture age 4 days
  Titers: 0.5 mg/L
Ex.8 Table 16, seed SHY.KCD, production SHY.KcMC, 11 mM sodium by ICP-MS, culture age 5 days
  Titers: 0.7 mg/L
Ex.8 Table 16, seed SHY.KCD, production SHY.KcMC, 11 mM sodium by ICP-MS, culture age 6 days
  Titers: 0.9 mg/L
INSTANT OCEAN-based media, day 4, condition 1 (Control): seed no cobalt addition, production no cobalt addition
  Titers: 15 mg/L
INSTANT OCEAN-based media, day 4, condition 2: seed no cobalt addition, production +13 μg/L CoCl2•6H2O
  Titers: 7.4 mg/L
INSTANT OCEAN-based media, day 4, condition 3: seed no cobalt addition, production +52 μg/L CoCl2•6H2O
  Titers: 5.6 mg/L
INSTANT OCEAN-based media, day 4, condition 4: seed no cobalt addition, production +208 μg/L CoCl2•6H2O
  Titers: 5.5 mg/L
INSTANT OCEAN-based media, day 4, condition 5: seed +52 μg/L CoCl2•6H2O, production no cobalt addition
  Titers: 11.8 mg/L
INSTANT OCEAN-based media, day 4, condition 6: seed +52 μg/L, production +13 μg/L CoCl2•6H2O
  Titers: 8.9 mg/L
INSTANT OCEAN-based media, day 4, condition 7: seed +52 μg/L, production +52 μg/L CoCl2•6H2O
  Titers: 7.8 mg/L
INSTANT OCEAN-based media, day 4, condition 8: seed +5 μg/L, production +208 μg/L CoCl2•6H2O
  Titers: 7.0 mg/L
INSTANT OCEAN-based media, day 4, condition 9: seed +208 μg/L CoCl2•6H2O, production no cobalt addition
  Titers: 7.9 mg/L
INSTANT OCEAN-based media, day 4, condition 10: seed +208 μg/L, production +13 μg/L CoCl2•6H2O
  Titers: 5.7 mg/L
INSTANT OCEAN-based media, day 4, condition 11: seed +208 μg/L, production +52 μg/L CoCl2•6H2O
  Titers: 6.4 mg/L
INSTANT OCEAN-based media, day 4, condition 12: seed +208 μg/L, production +208 μg/L CoCl2•6H2O
  Titers: 5.1 mg/L
Instant Ocean based media, 0x Vitamin B12: seed 0, production 0
  Maximum Titer: 11.1 mg/L
Instant Ocean based media, 1x Vitamin B12: seed and production 0.296 mg/L (0.22 μM)
  Maximum Titer: 2.8 mg/L
Instant Ocean based media, 1x vitamin B12P: seed 0, production 0.296 mg/L (0.22 μM) Vitamin B12
  Maximum Titer: 2.9 mg/L
Instant Ocean based media, 4x Vitamin B12: seed and production 1.185 mg/L (0.88 μM)
  Maximum Titer: 2.8 mg/L
Instant Ocean based media, 10x Vitamin B12: seed and production 2.96 mg/L (2.2 μM)
  Maximum Titer: 2.5 mg/L
LoCl.PD + 0.1% Valeric acid
  Titers (maximum concentrations): 8.3 mg/L
NPS21184, CoCl2•6H2O 0 in seed medium, 0 in production medium
  Titer: 13 mg/L
NPS21184, CoCl2•6H2O 208 μg/L in seed medium, 52 μg/L in production medium
  Titer: 1.2 mg/L
NPS21184, production medium with salt formulation, NaCl 0 g/L
  Titer: 0 mg/L
NPS21184, production medium with salt formulation, NaCl 5 g/L
  Titer: 0.5 mg/L
NPS21184, production medium with salt formulation, NaCl 10 g/L
  Titer: 14 mg/L
NPS21184, production medium with salt formulation, NaCl 15 g/L
  Titer: 6.4 mg/L
NPS21184, production medium with salt formulation, NaCl 20 g/L
  Titer: 1.2 mg/L
NPS21184, production medium with salt formulation, NaCl 24 g/L
  Titer: 2.1 mg/L
NPS21184, production medium with salt formulation, NaCl 30 g/L
  Titer: 1.4 mg/L
Defined salt formulation based media, 1× CoCl2•6H2O: seed and production 52 μ/L (0.22 μM) CoCl2•6H2O
  Maximum Titer: 1.4 mg/L
Defined salt formulation based media, 1× vitamin B12: seed and production 0.296 mg/L (0.22 μM) Vitamin B12
  Maximum Titer: 1.1 mg/L
Defined salt formulation based media, Control: no vitamin B12 or cobalt supplement
  Maximum Titer: 4.7 mg/L
Low chloride production medium LoCl.PD, no valeric acid
  Titers (maximum concentrations): 25 mg/L
Saline production medium BAS.PD, no valeric acid
  Titers (maximum concentrations): 6.6 mg/L

Marks after values point to notes of the source that are not given here.
